Laboratory results reported in US20090018161A1, “METHOD FOR PROMOTING GASTROINTESTINAL FUNCTION AND METHOD FOR SCREENING FOR PROMOTER OF GASTROINTESTINAL FUNCTION” (AJINOMOTO CO. INC., priority 2005, published 2009).
Some results were stated once for a whole list of compounds, not compound by compound.

Assays:
Male ICR mouse = assay: Mouse gastric emptying method (stomach content emptying test using T1R agonist); type: in vivo; settings: Example 6; oral 5% casein fluid diet (0.5 mL) with compound at 10 weight ppm; 30 minutes after dosing; FIG. 7
healthy beagle dogs = assay: 13C-acetic acid breath test; type: in vivo; settings: 3 mg/dog oral in 300 ml liquid meal containing 50 mg 13C-acetic acid; breath samples for 4 hours; FIG. 8

| Compound | gastric emptying rate (Male ICR mouse) | Cumulative Percentage Dose Recovery (CPDR), 4 hours (gastric emptying volume) (healthy beagle dogs) |
| --- | --- | --- |
| CCCC(CCC)NC(=O)c1ccc(OCC)cc1 [compound 5, 4-ethoxy-N-(1-propylbutyl)-benzamide] | promoted gastric emptying | – |
| Cc1ccc(-c2nc(SCc3ccccn3)n[nH]2)c(C)c1.Cl [compound 10] | – | increased |
| Cl.O=C(NCCc1ccccn1)C(=O)NCc1ccccc1Cl [compound 8, N-(2-chlorobenzyl)-N′-(2-(pyridin-2-yl)ethyl)oxalamideHCl] | – | increased |
| COC(=O)[C@@H](CC(C)C)NC(=O)c1ccc(OC)c(Cl)c1 [compound 14, (R)-methyl 2-(3-chloro-4-methoxybenzamido)-4-methylpentanoate] | – | increased |
| COc1cc(C)ccc1-c1nc(SCc2ccccn2)n[nH]1.Cl [compound 9, 2-((5-(2-methoxy-4-methylphenyl)-1H-1,2,4-triazol-3-ylthio)methyl)pyridine HCl] | – | increased |
| COc1ccc(CNC(=O)C(=O)NCCc2ccc(C)cn2)c(OC)c1.Cl [compound 7, N-(2,4-dimethoxybenzyl)-N′-(2-(5-methylpyridin-2-yl)ethyl)oxalamide HCl] | – | increased |
| COC(=O)[C@@H](CC(C)C)NC(=O)c1ccc(SC)cc1 [compound 15, (R)-methyl 4-methyl-2-(4-(methylthio)benzamido)-pentanoate] | – | increased |
| COc1ccc2c(c1)CCC2NC(=O)c1cccc(OC)c1N.Cl (stereo not shown) [compound 11, 2-amino-3-methoxy-N-(5-methoxy-2,3-dihydro-1H-inden-1-yl)benzamide HCl] | – | increased |
| COc1ccc2c(c1)CCCC2NC(=O)c1cccc(OC)c1N.Cl (stereo not shown) [compound 12, 2-amino-3-methoxy-N-(6-methoxy-1,2,3,4-tetrahydronaphthalen-1-yl)benzamide HCl] | – | increased |
| CCOc1ccc(NC(=O)c2cc(Cl)ccc2Cl)cc1 [compound 2, 2,5-dichloro-N-(4-ethoxyphenyl)-benzamide] | promoted gastric emptying | – |
| CCCC(CCC)NC(=O)c1ccc2c(c1)NCCC2.Cl [compound 13, N-(heptan-4-yl)-1,2,3,4-tetrahydroquinoline-7-carboxamide HCl] | – | increased |
| O=C(NC1CCCc2ccccc21)c1ccc2c(c1)OCO2 (stereo not shown) [compound 4, N-(1,2,3,4-tetrahydronaphthalen-1-yl)-benzo[1,3]dioxol-5-carboxamide] | promoted gastric emptying | – |
| CCC(CC)NC(=O)c1cc2ccccc2o1 [compound 3, N-(1-ethylpropyl)-benzofuran-2-carboxamide] | promoted gastric emptying | – |
